Experimental data from publication PMC7819943, “Rice protein-binding microarrays: a tool to detect cis-acting elements near promoter regions in rice”.
Some of the results follow.

Amino acid sequences for entries named in this document (tags omitted).
UniProt Q0JBA9, entry or part of it: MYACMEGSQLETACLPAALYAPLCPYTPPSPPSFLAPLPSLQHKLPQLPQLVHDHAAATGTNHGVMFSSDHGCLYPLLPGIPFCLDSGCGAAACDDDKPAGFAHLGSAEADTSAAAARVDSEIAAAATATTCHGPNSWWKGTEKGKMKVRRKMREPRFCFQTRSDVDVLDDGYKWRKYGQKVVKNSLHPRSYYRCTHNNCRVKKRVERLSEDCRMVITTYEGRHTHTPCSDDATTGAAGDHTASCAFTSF

Target: OsWRKY34 (Oryza sativa, UniProt Q0JBA9 1-250)
Experiment: protein-binding microarray (RPBM); PBS, 2% BSA, 51.3 ng/ul salmon testes DNA, 50 uM zinc acetate, 200 nM TF, 25 C, 1 h; high values mean tight binding
Conditions: protein: recombinant; tags: N-terminal polyhistidine and DsRed monomer fusion (pET32a); label: CyDye5-dUTP incorporated in the synthesized complementary strand; 3' TTTTT single-stranded linker to array surface; dsDNA, one strand shown
Procedure, shortened: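 The binding signal for each feature is its fluorescence intensity in arbitrary units. An Axon 4000B scanner was used to read a custom Agilent array that had been made double-stranded with Cy5-dUTP primer extension, blocked with 2% BSA, incubated at 25 °C for 1 h with 200 nM protein in PBS, 2% BSA, salmon testes DNA and 50 µM zinc acetate, and washed. The protein was an N-terminal polyhistidine–DsRed transcription factor fusion from E. coli BL21-CodonPlus, purified on Ni–NTA.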

First: TCTATCTACCCCGCATTCCATCCATCCGCGCATTAATCCCCGGAGTCACCTAGTGCAG
Second: GTAATTTGTAGGCTCAAACTGGCTTCGTTATTCTTGTTTTCGGAGTCACCTAGTGCAG
The binding signal of the first is higher: 15100 fluorescence intensity (a.u.) for the first, 10900 fluorescence intensity (a.u.) for the second.

First: TCTCGTCTTCTTCCTAATCCTTCCTGCATCGATTCTAACTCGGAGTCACCTAGTGCAG
Second: CTACATTATATCGATCTGTACATTCTCTTGGTCATGCATACGGAGTCACCTAGTGCAG
The binding signal of the first is lower: 9760 fluorescence intensity (a.u.) for the first, 9970 fluorescence intensity (a.u.) for the second.

First: TCACGGTTTCCATGCAAGTTATGAAATTAGTTTGTTCATTCGGAGTCACCTAGTGCAG
Second: TGACATAGCCTTACGATCCCTTTTCTTCTCATCGTTGGACCGGAGTCACCTAGTGCAG
The binding signal of the first is lower: 8192 fluorescence intensity (a.u.) for the first, 8280 fluorescence intensity (a.u.) for the second.

Compared with “ACATGTTCATACTCATACATGTATATCCTCTTTGCCTAAACGGAGTCACCTAGTGCAG”, “GTTGTGCAACCTCTATTTTGTACATGTATTTCTGTTTAAACGGAGTCACCTAGTGCAG” is lower in binding signal: 11500 fluorescence intensity (a.u.) for the first, 8620 fluorescence intensity (a.u.) for the second.

First: CATCGGAGCGGGAGGTAAGGTAAAGGTGTTGACTATTGAACGGAGTCACCTAGTGCAG
Second: CATAGCCACTCGCTGCGCCTCCTCCTCATCGCCTCGCCGTCGGAGTCACCTAGTGCAG
The binding signal of the first is lower: 8360 fluorescence intensity (a.u.) for the first, 8490 fluorescence intensity (a.u.) for the second.

Going from “GCACGATCTCACGATTCTGCCTCCTCATCTCTGTCGTTTCCGGAGTCACCTAGTGCAG” to “GGTTATCTGCGTCGTCGTCTGTCATCTCCTCCTCATCTTCCGGAGTCACCTAGTGCAG”, the binding signal rises from 8480 fluorescence intensity (a.u.) to 10200 fluorescence intensity (a.u.).

Going from “GATAGTTGAGGGGTCGAGATTTTTGGTATTGCGGATTGGGCGGAGTCACCTAGTGCAG” to “TTTTCTATATTTAATACTCCATATATATATATTTTCAAACCGGAGTCACCTAGTGCAG”, the binding signal falls from 10400 fluorescence intensity (a.u.) to 8700 fluorescence intensity (a.u.).

Going from “TCTTCTACTCCACTTGGTATATATGGTTGTTGCTTTGACTCGGAGTCACCTAGTGCAG” to “GGTTGGTTGGTGGAGGTGGATGGGAAACCCAAGAAAATACCGGAGTCACCTAGTGCAG”, the binding signal falls from 14600 fluorescence intensity (a.u.) to 11200 fluorescence intensity (a.u.).

First: GCTTTTGAGTTGACAGCCACCGTTTTTAACCAACGCGCGACGGAGTCACCTAGTGCAG
Second: CGCCTCATCTTTGGTTAATTGTGTTCCGGTTCAGGCTATTCGGAGTCACCTAGTGCAG
The binding signal of the first is lower: 8140 fluorescence intensity (a.u.) for the first, 13900 fluorescence intensity (a.u.) for the second.

Going from “CATGTCCAACGTTTGACCATTTGCCTTATTTAAAATTTTTCGGAGTCACCTAGTGCAG” to “AGTGCTTCAACATTGCTGACCTAGGGGTATTTCAGTCAAACGGAGTCACCTAGTGCAG”, the binding signal falls from 9250 fluorescence intensity (a.u.) to 8690 fluorescence intensity (a.u.).

Going from “GTTTGACCAACTCATTTTTACTATCTAGATTTTTAGAATTCGGAGTCACCTAGTGCAG” to “AACCGCCTTTGCCGCTCGCTCCCGCCTCGAACCGACCTCGCGGAGTCACCTAGTGCAG”, the binding signal rises from 8400 fluorescence intensity (a.u.) to 9710 fluorescence intensity (a.u.).

Compared with “CATATATATCTTTTATTCTCCAGGTGTGTTGTATTCCTTCCGGAGTCACCTAGTGCAG”, “CCGTGGTTGGGGTGGTGGGCCGGGGTGTTACGTTAATGGGCGGAGTCACCTAGTGCAG” is higher in binding signal: 8580 fluorescence intensity (a.u.) for the first, 16500 fluorescence intensity (a.u.) for the second.

First: AGACCGTTGACTTGACTAGTCCACTCCTCTTTCACACGTACGGAGTCACCTAGTGCAG
Second: ACCAGGCAACCATTATCTACTCTGACAGTTTCATATGGTCCGGAGTCACCTAGTGCAG
The binding signal of the first is higher: 12100 fluorescence intensity (a.u.) for the first, 8320 fluorescence intensity (a.u.) for the second.

First: GGGATTTAATACACATTCTTCTTGGGAATTCTGGTTCGTGCGGAGTCACCTAGTGCAG
Second: GCCCAACTCGTGGATGTCACCTCTCCTCCTCTCATCGCCTCGGAGTCACCTAGTGCAG
The binding signal of the first is higher: 8340 fluorescence intensity (a.u.) for the first, 8240 fluorescence intensity (a.u.) for the second.

Compared with “CGTGTTTTATGCTTTTTAATGCAACTTTTTTTCCAAATGTCGGAGTCACCTAGTGCAG”, “ATAACTTATGCTTCCTTGTACATATTTTGTCATTTTTCCTCGGAGTCACCTAGTGCAG” is higher in binding signal: 8110 fluorescence intensity (a.u.) for the first, 13200 fluorescence intensity (a.u.) for the second.

Going from “GTCCGTCCCTCATGCAGCGTCCGCTTTCCCCTAATCCGCTCGGAGTCACCTAGTGCAG” to “AAACCATCCCGCCCATGTAAACAATCACCGCCCTTGACTCCGGAGTCACCTAGTGCAG”, the binding signal falls from 13000 fluorescence intensity (a.u.) to 11400 fluorescence intensity (a.u.).

Going from “TGTAGGGGTATACTTGGATTTTGGGAGAAGCTGTAATGTGCGGAGTCACCTAGTGCAG” to “GCTGCACACCAGCTCTCGTGCCCAGTCGCCGCTTGTTGATCGGAGTCACCTAGTGCAG”, the binding signal falls from 11700 fluorescence intensity (a.u.) to 9560 fluorescence intensity (a.u.).

Going from “TGGGGAGGCATTCTTTTCTTTTTCTTTTTTTTTCACTCTCCGGAGTCACCTAGTGCAG” to “CATTGTTTCATTTTAAGCTTTTATTCACCATCTCTATTATCGGAGTCACCTAGTGCAG”, the binding signal falls from 14500 fluorescence intensity (a.u.) to 9450 fluorescence intensity (a.u.).

First: TCTTCTCGATCGTTATATCGCGACCAGTACGCGCTACTACCGGAGTCACCTAGTGCAG
Second: CAAAGTACATGCATACCCTGCATCACATATCAACCATACACGGAGTCACCTAGTGCAG
The binding signal of the first is higher: 11600 fluorescence intensity (a.u.) for the first, 9030 fluorescence intensity (a.u.) for the second.

Compared with “GTTGATGGACAGGGAGGGAGGCAAGTGGGGCTGTGAATTCCGGAGTCACCTAGTGCAG”, “TTTATCTATGTTGGTTTTTTTCGCTTTTTACTTTTTATTTCGGAGTCACCTAGTGCAG” is higher in binding signal: 8900 fluorescence intensity (a.u.) for the first, 14700 fluorescence intensity (a.u.) for the second.

Compared with “CTTTTTTATTTTCATGAAATAATGTTTTGTTTTTAAAAATCGGAGTCACCTAGTGCAG”, “TGCTCCATTTCTCATTCAAAATTGACCTTTCATGACCAAACGGAGTCACCTAGTGCAG” is lower in binding signal: 11600 fluorescence intensity (a.u.) for the first, 8140 fluorescence intensity (a.u.) for the second.
